Here are results for two molecules from paper PMC8621594.

The target in assay [1] is T1, Ruconest® (conestat alfa), human recombinant C1 inhibitor purified from the milk of transgenic rabbits (human), P05155.
T1 chain: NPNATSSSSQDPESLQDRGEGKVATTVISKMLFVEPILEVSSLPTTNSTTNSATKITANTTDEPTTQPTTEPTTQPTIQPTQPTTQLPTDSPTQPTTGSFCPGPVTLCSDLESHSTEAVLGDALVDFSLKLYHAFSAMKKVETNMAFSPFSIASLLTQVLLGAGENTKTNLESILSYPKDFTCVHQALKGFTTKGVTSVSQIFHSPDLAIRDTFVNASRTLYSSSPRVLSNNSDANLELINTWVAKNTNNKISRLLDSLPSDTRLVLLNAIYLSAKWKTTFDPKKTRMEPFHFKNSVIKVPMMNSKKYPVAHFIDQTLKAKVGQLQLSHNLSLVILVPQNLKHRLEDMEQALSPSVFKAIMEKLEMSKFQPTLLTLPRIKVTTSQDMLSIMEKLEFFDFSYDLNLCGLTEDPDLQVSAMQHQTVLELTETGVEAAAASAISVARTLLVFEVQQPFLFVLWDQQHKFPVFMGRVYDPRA
Nature of the assay: SEC; TSKgel G3000SWXL, 0.5 mL/min, PBS with acetonitrile to 5%, pH 7.4, UV at 214 nm; relative content of monomer, fragments and aggregates; both purified. The following applies: remark: other sources report otherwise.

Assay [2] addresses T2, Berinert®, plasma-derived human C1 inhibitor (human), P05155.
T2 chain: T1 chain
The description is as above. Conditions: remark: other sources report otherwise.

No constants are given. Whether binding was seen depends on the method and setting.

B1: Ruconest^® (conestat alfa), human recombinant C1 inhibitor purified from the milk of transgenic rabbits, P05155 23-500 (protein)
chain: T1 chain
modifications: here or on the partner: glycosylated; 8.0 ± 0.6 mol Neu5Ac/mol protein; glycosylated; 8.0 ± 0.6 mol Neu5Ac/mol protein
Turning to B1, in assay [1], the binding entry is on record as “no binding”.

B2: Berinert^®, plasma-derived human C1 inhibitor, P05155 23-500 (protein)
chain: T1 chain
modifications: here or on the partner: glycosylated; 35.0 ± 1.0 mol Neu5Ac/mol protein; glycosylated; 35.0 ± 1.0 mol Neu5Ac/mol protein
For B2, the binding result in assay [2] is listed as “no binding”.
